Experimental data from article PMC7252518.
Results are given in words; binding and its absence hold for the method and conditions named. In cells and extracts the contact can be indirect. Some entries that bind do so weakly or less than the wild type. Blank lines part the entries; values can stand above or below the substance they belong to.

By UniProt entry, the sequences of proteins in these tests, tags left out. Where a name states a change or a piece, a line headed by the entry shows the natural chain unless it says otherwise.
UniProt Q15910: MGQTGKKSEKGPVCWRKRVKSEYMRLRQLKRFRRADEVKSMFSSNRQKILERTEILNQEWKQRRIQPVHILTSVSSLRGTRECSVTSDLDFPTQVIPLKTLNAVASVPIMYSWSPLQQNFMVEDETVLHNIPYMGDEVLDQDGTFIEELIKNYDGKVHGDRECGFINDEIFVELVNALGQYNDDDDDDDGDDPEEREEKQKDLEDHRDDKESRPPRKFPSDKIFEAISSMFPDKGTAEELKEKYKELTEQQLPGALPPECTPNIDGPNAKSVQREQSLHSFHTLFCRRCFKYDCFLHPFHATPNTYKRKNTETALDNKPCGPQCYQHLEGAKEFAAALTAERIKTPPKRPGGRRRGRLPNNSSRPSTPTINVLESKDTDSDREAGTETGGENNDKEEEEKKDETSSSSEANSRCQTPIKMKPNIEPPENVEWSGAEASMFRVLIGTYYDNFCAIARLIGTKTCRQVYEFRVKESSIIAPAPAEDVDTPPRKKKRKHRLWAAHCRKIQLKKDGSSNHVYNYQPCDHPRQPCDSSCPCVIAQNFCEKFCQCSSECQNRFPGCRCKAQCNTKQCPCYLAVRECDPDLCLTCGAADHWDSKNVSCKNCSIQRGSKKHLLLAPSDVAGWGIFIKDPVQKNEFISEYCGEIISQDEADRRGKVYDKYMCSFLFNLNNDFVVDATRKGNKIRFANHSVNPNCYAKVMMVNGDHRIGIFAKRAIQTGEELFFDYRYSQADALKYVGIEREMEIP
UniProt Q93009: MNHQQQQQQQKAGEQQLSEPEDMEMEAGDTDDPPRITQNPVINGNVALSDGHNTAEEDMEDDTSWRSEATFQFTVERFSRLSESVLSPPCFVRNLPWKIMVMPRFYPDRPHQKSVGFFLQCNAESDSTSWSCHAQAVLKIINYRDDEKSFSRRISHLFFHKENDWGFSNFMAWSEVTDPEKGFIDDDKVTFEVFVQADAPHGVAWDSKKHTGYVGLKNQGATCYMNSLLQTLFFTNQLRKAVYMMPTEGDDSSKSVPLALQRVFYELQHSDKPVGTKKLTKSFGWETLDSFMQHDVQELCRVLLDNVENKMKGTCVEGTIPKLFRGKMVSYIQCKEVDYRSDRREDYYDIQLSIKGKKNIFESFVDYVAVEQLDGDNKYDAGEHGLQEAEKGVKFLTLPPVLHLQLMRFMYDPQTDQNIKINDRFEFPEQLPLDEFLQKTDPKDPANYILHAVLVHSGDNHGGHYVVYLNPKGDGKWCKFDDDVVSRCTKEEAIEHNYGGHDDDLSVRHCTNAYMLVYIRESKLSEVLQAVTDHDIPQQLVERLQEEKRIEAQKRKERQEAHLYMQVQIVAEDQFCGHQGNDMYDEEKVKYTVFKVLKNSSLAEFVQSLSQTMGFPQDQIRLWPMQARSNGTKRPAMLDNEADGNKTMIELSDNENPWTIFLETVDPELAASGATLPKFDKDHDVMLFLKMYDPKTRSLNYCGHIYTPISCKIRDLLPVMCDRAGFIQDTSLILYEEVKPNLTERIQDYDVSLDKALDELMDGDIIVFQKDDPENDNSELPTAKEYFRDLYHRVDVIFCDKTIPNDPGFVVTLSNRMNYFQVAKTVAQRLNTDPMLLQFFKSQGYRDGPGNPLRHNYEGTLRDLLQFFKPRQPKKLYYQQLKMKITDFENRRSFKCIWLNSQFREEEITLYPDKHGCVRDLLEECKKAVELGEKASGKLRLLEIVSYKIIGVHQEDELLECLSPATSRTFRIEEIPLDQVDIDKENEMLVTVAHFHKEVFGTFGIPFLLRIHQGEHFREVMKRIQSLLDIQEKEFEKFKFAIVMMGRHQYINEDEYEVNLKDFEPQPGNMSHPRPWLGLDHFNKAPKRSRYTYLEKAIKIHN
UniProt Q9H9B1: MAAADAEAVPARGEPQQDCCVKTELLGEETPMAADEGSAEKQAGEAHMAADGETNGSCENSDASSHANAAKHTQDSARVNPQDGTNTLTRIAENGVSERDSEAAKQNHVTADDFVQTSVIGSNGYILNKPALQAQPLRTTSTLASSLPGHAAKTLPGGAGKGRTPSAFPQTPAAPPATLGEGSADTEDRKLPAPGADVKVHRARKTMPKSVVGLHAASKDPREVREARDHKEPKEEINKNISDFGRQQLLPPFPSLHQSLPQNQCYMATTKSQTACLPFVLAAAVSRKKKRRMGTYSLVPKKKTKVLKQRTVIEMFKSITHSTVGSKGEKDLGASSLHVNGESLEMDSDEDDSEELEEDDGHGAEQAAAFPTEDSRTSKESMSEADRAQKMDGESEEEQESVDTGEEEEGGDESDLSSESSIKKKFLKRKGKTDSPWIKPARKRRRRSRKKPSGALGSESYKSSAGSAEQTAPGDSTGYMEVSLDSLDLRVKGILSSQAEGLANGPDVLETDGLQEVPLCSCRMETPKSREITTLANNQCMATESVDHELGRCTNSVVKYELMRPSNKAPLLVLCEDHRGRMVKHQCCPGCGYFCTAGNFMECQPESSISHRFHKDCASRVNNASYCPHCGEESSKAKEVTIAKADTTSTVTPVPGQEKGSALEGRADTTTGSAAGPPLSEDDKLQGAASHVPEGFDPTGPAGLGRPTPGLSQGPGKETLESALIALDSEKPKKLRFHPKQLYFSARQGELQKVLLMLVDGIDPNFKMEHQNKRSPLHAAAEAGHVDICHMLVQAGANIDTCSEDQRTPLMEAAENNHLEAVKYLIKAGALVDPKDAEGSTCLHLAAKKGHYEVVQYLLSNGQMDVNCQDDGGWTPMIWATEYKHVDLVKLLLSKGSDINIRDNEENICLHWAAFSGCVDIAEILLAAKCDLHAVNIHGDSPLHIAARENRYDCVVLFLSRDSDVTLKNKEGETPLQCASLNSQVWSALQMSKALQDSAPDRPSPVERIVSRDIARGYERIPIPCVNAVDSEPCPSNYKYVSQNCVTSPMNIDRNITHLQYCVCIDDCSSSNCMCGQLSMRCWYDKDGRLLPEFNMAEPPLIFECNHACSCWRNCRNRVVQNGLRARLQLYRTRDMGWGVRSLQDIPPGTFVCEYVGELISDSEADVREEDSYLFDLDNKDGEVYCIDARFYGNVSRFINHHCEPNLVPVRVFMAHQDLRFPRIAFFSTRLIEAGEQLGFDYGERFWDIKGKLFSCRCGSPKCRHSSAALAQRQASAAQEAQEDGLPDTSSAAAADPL

Assays:
[1] = target: HA-EZH2 Y111L (therapy-resistant mutant) (UniProt Q15910); experiment: co-IP; Flag-USP7 co-expressed in HEK293T cells with HA-tagged EZH2 mutants; lysates immunoprecipitated with HA antibody, immunoblotted with anti-Flag or anti-HA
[2] = target: HA-EZH2 Y641N/Y661D (therapy-resistant mutant) (UniProt Q15910); experiment: as above
[3] = target: EZH2, endogenous in DU145 cells (human (endogenous in DU145)) (UniProt Q15910); experiment: co-IP; endogenous proteins; DU145 cell lysates immunoprecipitated with normal IgG or anti-EZH2 antibody, immunoblotted with anti-USP7 or anti-EZH2
[4] = target: USP7 as used in the immunoprecipitation test of histone-modifying enzymes (Figure S1) (UniProt Q93009); experiment: co-IP; immunoprecipitation assay of several histone-modifying enzymes with USP7 (Figure S1A and B); details not shown

binding [1]: binds
binding [2]: binds
Substance: Flag-USP7 (ubiquitin-specific protease 7, wild type) (from UniProt Q93009 1-1102) (enzyme)

binding [3]: binds
Substance: USP7, endogenous in DU145 cells (from UniProt Q93009 1-1102) (enzyme)

binding [4]: binds
Substance: GLP1 (from UniProt Q9H9B1 1-1298) (enzyme)
